Values of other authors in patent publication US7850723B1, “Method and apparatus for patient temperature control employing titration of therapy using EEG signals” (Innercool Therapies, Inc., priority 2005, dated 2010).
Some of these results come from one statement about several compounds together. At least one compound was matched to its structure with a doubt left.

Test system: opiate receptor
Conditions: (+) isomer versus (−) isomer

Row | SMILES | ratio of opiate efficacy (+/−) between the enantiomeric forms
1 | CCC(=O)O[C@@]1(c2ccccc2)CCN(C)C[C@@H]1C [beta prodine] | 10 to 30 fold
2 | CCC(=O)OC1(c2ccccc2)CCN(C)CC1C (racemic) [alpha prodine] | 10 to 30 fold
